The list shows a part of the results, in another mix than the full data. At the low end of the ranking, values are background and their order means little.

The chains behind the UniProt entries cited, without tags or fusion partners. Where a name states a change or a piece, a line headed by the entry shows the natural chain unless it says otherwise.
UniProt O43186: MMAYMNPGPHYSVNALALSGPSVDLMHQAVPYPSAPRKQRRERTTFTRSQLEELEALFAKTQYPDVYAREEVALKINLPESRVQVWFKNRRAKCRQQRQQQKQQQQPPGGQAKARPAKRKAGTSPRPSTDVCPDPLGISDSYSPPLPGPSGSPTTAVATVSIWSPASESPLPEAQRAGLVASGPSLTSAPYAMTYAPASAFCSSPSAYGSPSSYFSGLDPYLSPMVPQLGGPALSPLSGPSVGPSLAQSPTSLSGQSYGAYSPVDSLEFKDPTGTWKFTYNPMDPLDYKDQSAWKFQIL

This experiment concerns the target CRX (UniProt O43186). In words: DAPPL (digital affinity profiling via proximity ligation, sequencing). To be noted: 10 mM Tris-HCl pH 7.5, 50 mM NaCl, 1 mM DTT, 4% glycerol, room temperature, 30 min; GST-TFs on glutathione beads, 16-mer random dsDNA library, 0.1% …; high values mean tight binding; double strand, one strand shown; scale: fold enrichment (6-mer frequency, TF over GST control).
Sequence GCTTAC gave a binding signal of 2.01.

Take ACCACA: the binding signal came to 0.814.

With TATAGA, the binding signal was 1.45.

The sequence GAAGCG came in with a binding signal of 0.817.

Regarding CACGAT, the binding signal is 1.39.

In turn, TTTGGA came in with a binding signal of 1.48.

ATTCAC displayed a binding signal of 1.14.

The sequence CAATTA registered a binding signal of 1.25.

As to AGGACC, the binding signal is 0.809.

Sequence TCCATG yielded a binding signal of 1.13.

For the sequence GAAACC, the binding signal came out at 0.648.

ATGTGG displayed a binding signal of 0.971.

For the sequence TGCATT, the binding signal was found to be 1.32.

CACACA gave a binding signal of 0.813.

Regarding TTGGCA, the binding signal worked out at 1.12.

As for AATTCG, the binding signal stood at 1.57.

GCTGTT had a binding signal of 0.947.

AGTGGT: the binding signal is 0.808.

For AACCGG, the binding signal was determined as 0.695.

Turning to AAAAAC, the binding signal was 1.16.

Regarding AATGCG, the binding signal was found to be 1.36.

AAAGTA had a binding signal of 1.35.

CAATTC had a binding signal of 1.07.

Regarding CCGAAA, the binding signal was 1.28.

TGACGG returned a binding signal of 0.75.

As to CATACG, the binding signal came to 0.839.

With CACGCG, the binding signal was 0.979.

With CTTCAC, the binding signal was 1.17.

GCGTCC had a binding signal of 0.78.

Sequence TTGGTC returned a binding signal of 0.932.

AAGATG showed a binding signal of 1.27.

CCAACA came in with a binding signal of 0.792.

Regarding TTGTCA, the binding signal turned out to be 0.998.

Regarding GTTATC, the binding signal is 1.24.

On to ACGACG, for which the binding signal came out at 0.891.

Consider GCAATT, for which the binding signal was found to be 0.976.

ATACGG had a binding signal of 0.976.

On to TCACTG, for which the binding signal came out at 1.09.

CGCAAC came in with a binding signal of 0.725.

The values are drawn from paper PMC7862700.
